# Some entries share one result that the patent states for a list of compounds.
# Test: Emission spectra in glycerol, wavelength adjustment (Test Example 3)
# Format: physicochemical
# Conditions: 1×10^−5 M
# Description: The dye5, dye6, dye11, dye12, dye13, dye14, dye39 and dye42 were added into glycerol to prepare a solution with a final concentration of 1×10^−5 M, fluorescent dyes were excited with corresponding maximum excitation wavelength so as to obtain the emission spectra, and some of the emission spectra were normalized.
smiles,measurement,value
CN(CCO)c1ccc2c(c1)C(C)(C)c1cc(/C=C3\SC(=S)NC3=S)sc1-2 [dye39],maximum emission wavelength,over 800
CN(CCO)c1cc2c(s1)-c1sc(/C=C3\SC(=S)NC3=S)cc1C2(C)C [dye42],maximum emission wavelength,over 800

# From patent US20240352309A1, “FLUORESCENT DYE, AND PREPARATION METHOD THEREFOR AND USE THEREOF” (FLUORESCENCE DIAGNOSIS (SHANGHAI) BIOTECH COMPANY LTD., priority 2021, published 2024)
